Measurements reported in publication doi:10.1101/2024.01.16.575949.
These are yes or no findings as the source states them, for the method shown. For part of these data: In cells and extracts the contact can be indirect. Some entries that bind do so weakly or less than the wild type.

Columns and labels:
[1] = target: T1, Halo-FAM60A (full length) (UniProt Q9NP50); assay: cross-linking
T1 sequence: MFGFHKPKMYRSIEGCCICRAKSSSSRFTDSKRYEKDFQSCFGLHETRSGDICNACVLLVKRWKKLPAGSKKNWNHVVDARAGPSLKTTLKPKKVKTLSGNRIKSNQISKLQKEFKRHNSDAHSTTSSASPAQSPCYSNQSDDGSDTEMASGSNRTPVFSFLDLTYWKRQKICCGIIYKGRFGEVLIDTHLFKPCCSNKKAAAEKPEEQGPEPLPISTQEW

[2] = target: T1, Halo-FAM60A (full length); assay: SEC
[3] = target: T2, SIN3A (endogenous) (human (endogenous in HEK293)) (UniProt Q96ST3); assay: cross-linking
T2 sequence: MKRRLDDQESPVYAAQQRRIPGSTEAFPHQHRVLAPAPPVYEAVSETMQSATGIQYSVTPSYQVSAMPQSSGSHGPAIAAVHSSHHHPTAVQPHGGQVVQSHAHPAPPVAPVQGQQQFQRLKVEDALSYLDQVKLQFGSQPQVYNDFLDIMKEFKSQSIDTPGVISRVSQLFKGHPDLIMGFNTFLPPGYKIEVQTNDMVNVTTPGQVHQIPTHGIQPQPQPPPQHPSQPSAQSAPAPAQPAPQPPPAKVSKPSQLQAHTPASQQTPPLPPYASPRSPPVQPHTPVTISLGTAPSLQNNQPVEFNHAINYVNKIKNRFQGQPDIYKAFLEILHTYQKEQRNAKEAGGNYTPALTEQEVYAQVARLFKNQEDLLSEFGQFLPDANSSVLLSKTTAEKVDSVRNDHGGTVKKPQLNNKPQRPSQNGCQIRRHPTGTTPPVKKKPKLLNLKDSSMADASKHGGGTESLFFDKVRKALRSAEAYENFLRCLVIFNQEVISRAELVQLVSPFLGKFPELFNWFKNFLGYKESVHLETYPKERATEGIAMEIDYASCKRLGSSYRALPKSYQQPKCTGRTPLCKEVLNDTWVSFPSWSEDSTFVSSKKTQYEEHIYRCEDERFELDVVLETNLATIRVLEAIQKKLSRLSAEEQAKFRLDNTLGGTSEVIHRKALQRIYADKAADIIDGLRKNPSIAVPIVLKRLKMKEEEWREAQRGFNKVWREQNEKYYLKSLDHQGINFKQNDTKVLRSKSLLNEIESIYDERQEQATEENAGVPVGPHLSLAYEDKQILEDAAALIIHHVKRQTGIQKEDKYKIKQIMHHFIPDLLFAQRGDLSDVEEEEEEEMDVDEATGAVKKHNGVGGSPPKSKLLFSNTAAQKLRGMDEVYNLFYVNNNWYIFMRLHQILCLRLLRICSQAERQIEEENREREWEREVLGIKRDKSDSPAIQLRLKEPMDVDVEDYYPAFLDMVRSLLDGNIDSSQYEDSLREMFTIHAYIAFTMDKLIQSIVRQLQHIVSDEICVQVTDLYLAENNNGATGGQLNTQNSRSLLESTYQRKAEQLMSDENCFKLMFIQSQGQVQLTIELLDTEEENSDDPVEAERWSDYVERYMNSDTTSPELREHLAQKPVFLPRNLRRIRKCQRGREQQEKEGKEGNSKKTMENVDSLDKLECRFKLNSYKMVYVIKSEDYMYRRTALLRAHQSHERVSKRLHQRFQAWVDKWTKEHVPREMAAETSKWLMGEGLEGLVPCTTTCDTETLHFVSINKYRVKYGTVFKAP

[4] = target: T3, Halo-SIN3A (UniProt Q96ST3); assay: pull-down
T3 sequence: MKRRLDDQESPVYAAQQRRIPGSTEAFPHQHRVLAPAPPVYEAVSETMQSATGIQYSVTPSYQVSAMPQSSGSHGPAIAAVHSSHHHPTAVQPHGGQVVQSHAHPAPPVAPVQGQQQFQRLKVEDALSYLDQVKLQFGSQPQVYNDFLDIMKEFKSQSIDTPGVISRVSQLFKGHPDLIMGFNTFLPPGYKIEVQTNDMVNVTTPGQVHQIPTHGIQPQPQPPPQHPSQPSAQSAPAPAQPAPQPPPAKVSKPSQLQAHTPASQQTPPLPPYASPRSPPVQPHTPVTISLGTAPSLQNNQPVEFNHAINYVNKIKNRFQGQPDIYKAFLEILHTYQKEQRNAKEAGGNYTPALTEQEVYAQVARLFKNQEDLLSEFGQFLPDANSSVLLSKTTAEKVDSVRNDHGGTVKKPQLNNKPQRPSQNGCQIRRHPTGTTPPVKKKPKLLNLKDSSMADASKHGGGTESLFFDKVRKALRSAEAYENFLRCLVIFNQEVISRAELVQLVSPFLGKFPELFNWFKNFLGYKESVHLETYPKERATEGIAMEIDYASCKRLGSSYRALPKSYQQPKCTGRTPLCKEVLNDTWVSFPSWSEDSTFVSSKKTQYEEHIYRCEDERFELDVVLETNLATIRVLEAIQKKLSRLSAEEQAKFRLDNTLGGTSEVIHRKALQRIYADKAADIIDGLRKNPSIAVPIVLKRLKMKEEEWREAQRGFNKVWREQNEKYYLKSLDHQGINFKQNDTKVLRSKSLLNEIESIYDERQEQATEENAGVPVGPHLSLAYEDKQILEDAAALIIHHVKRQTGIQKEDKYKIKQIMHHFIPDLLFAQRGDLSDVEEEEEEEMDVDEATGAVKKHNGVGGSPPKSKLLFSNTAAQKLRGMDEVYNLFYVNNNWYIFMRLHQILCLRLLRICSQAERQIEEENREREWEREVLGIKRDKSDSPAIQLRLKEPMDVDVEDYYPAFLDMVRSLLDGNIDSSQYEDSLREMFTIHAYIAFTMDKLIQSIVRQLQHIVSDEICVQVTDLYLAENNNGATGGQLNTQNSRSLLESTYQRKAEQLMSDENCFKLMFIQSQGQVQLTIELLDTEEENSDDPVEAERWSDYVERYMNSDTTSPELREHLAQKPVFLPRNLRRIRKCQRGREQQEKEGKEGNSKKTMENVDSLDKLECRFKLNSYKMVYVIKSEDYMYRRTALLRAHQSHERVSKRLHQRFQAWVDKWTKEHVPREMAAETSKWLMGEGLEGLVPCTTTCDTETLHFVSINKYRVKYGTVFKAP

MeCP2 (methyl-CpG-binding protein 2) (from UniProt P51608 1-486)
binding [1]: binds

HDAC1 (endogenous) (from UniProt Q13547 1-482) (enzyme)
binding [2]: binds
binding [1]: binds
binding [3]: binds
binding [4]: binds

B1: SUDS3 (endogenous) (protein, UniProt Q9H7L9 1-328)
chain: MSAAGLLAPAPAQAGAPPAPEYYPEEDEELESAEDDERSCRGRESDEDTEDASETDLAKHDEEDYVEMKEQMYQDKLASLKRQLQQLQEGTLQEYQKRMKKLDQQYKERIRNAELFLQLETEQVERNYIKEKKAAVKEFEDKKVELKENLIAELEEKKKMIENEKLTMELTGDSMEVKPIMTRKLRRRPNDPVPIPDKRRKPAPAQLNYLLTDEQIMEDLRTLNKLKSPKRPASPSSPEHLPATPAESPAQRFEARIEDGKLYYDKRWYHKSQAIYLESKDNQKLSCVISSVGANEIWVRKTSDSTKMRIYLGQLQRGLFVIRRRSAA
binding [2]: binds
binding [4]: binds

B2: SAP30 (endogenous) (protein, UniProt O75446 1-220)
chain: MNGFTPDEMSRGGDAAAAVAAVVAAAAAAASAGNGTGAGTGAEVPGAGAVSAAGPPGAAGPGPGQLCCLREDGERCGRAAGNASFSKRIQKSISQKKVKIELDKSARHLYICDYHKNLIQSVRNRRKRKGSDDDGGDSPVQDIDTPEVDLYQLQVNTLRRYKRHFKLPTRPGLNKAQLVEIVGCHFRSIPVNEKDTLTYFIYSVKNDKNKSDLKVDSGVH
binding [1]: binds
binding [3]: binds
